Reference: patent US20180016581

Amino acid sequences for entries named in this document (tags omitted). Residues count along the entry.
UniProt O14793, 267-375: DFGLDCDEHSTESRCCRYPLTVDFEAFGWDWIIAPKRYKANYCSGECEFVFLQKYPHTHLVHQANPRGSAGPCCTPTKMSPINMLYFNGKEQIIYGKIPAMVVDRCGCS

Columns and labels:
[1] = biological target: GDF8 (myostatin), mature (Homo sapiens) (UniProt O14793); assay: binding assay; details: TrpdU at each W (n in listing), purified recombinant protein, single-stranded DNA
[2] = biological target: T1, GDF11, mature (Homo sapiens) (UniProt O95390); assay: binding assay; details: TrpdU at each W (n in listing); with Z-block; purified recombinant protein; protein details: untagged; single-stranded DNA; variant of 14583-49_3
T1 sequence: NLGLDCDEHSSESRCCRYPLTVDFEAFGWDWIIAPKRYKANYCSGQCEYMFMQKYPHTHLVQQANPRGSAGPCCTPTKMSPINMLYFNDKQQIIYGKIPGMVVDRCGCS

ATACAGTCTTAGTGTTAGTGTTCTTTATGAGTCTAGACTG [14583-49_35]
Kd [1]: 9.8 nM

ATACGACCTAGTGTTACGAGGTCCTTTATGAGTCTAGACGTA [14583-49_38]
Kd [1]: > 320 nM

ATACGGTCTTAGTGTTAGAGTCCCTTTTATGAGTCTAGATTG [14583-49_36]
Kd [1]: 17.3 nM

ATTACGGCATTAGTGTTAGAGTCCTTTATGTAGCTCTAGATG [14583-49_37]
Kd [1]: > 320 nM

GTTAGAGTCCTTTATGAGTCTAG [14583-49_30]
binding result ([1]; 23-mer binds, 24-mer 14583-49_29 slightly better, with Z-block, variant of 14583-49_3): binds

TGTTAGAGTCCTTTATGAGTCTAG [14583-49_29]
Kd [2]: > 320 nM

For part of these data: Tags and fusion partners may be left off the protein sequences shown. For part of these data: Construct, isoform or probe ends are uncertain for at least one entry.
